Results of single-concentration screens

The values are deposited in ChEMBL (CHEMBL3988442, “University of Dundee, Small-Polar-MMV Screening Library” (2021)).

Values are the deposited “Percent Effect”, in %.
How 0% and 100% were set is not recorded. Most values in the screen are low, and negative values occur.
This is an unselected part of the compounds tested.
Two or more numbers in one place are separate tests of the same structure; such repeats can differ widely.

Mtb cholesterol medium: 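Whole-cell growth test on Mycobacterium tuberculosis, read after 4 days in a medium based on cholesterol and the lipid DPPC; the read-out is not stated. Compounds at 50 µM. The record gives no direction; compounds that gave an IC50 in retests scored well above the rest, so higher reads as more growth inhibition. Size under these conditions: about 69,000 compounds, about 370 of them at 50% or above in at least one test.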
Mtb glucose medium: 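Whole-cell growth test on Mycobacterium tuberculosis, read after 3 days in glucose-containing 7H9 medium; the read-out is not stated. Concentration: 50 µM. Direction is inferred from retests: higher values go with more growth inhibition. About 69,000 compounds were tested under these conditions; 1.1% (about 760) showed 50% or more at least once.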

compound | Mtb cholesterol medium | Mtb glucose medium
Cc1csc(NC(=O)Cn2nc(C)ccc2=O)n1 | -11.71% | -17.66% and 1.25%
CN(Cc1cccnc1)C1CC2(CCN(Cc3cccnc3)CC2)C1.O=C(O)C(F)(F)F.O=C(O)C(F)(F)F.O=C(O)C(F)(F)F | -6.617% and -4.52% | -20.39%
O=C(c1ccco1)N1CCC2(CC1)C(=O)Nc1ccccc12 | -1.168% and -2.116% | 12.47% and 1.839%
O=C(O)C(F)(F)F.O=C(O)C(F)(F)F.[H][C@@]12CN(Cc3ccsc3)CCC[C@]1(C(=O)O)CN(c1ccccn1)C2 | -8.846% | -6.753% and -23.29%
COc1cccc(OC2CN(C(=O)CCn3cnc4ccccc43)C2)c1 | -17.82% | -47.71% and -2.254%
Cc1nc(CN(C)C2CCN(CC3CCCC3)C2)no1 (centres unmarked) | -1.929% | -34.05%
O=C(c1cc(-n2cccn2)ccn1)N1CCOc2ccncc21 | 12.39% | 12.12%
[H][C@@]12CS(=O)(=O)C[C@]1([H])N(Cc1cnn(-c3ccc(C)cc3)c1)CCN2C | 1.236% | -5.9%
CCOCC1CC2(CCN(C(=O)c3ccccc3F)CC2)CO1 (centres unmarked) | -7.595% | -20.45%
Cc1nc(C(=O)N2CCN(S(C)(=O)=O)CC2)c(-c2ccccc2)s1 | -32.39% | -23.27%
Cn1cc(C(=O)N2CCCC(c3cnccn3)C2)cn1 (centres unmarked) | -18.5% | -1.316%
Cc1cnc(C)c(Oc2ccc(Cl)c(CN3CCCC3)c2Cl)n1 | 9.96% | 31.93%
Oc1ccc2oc3c(c2c1CN1CCOCC1)CCCC3 | 9.259% | -5.743%
CCN(CC)C(=O)Cn1cc(C(=O)NCCCc2scnc2C)nn1 | -2.908% | 23.5%
CCc1ncc2c(n1)CN(Cc1ncc(C(C)(C)C)o1)CC2 | -16.28% | -14.87%
Cn1ccc(-c2cc(C(=O)N3CCC(C(N)=O)CC3)c3ccccn23)n1 | 4.354% | 27.57%
Cc1cnn(CC2CCN(CC(O)c3ccccc3)CC2)c1 (centres unmarked) | -4.786% | -34.71% and -1.275%
COc1ccc(CN(C)Cc2nc3c(cnn3C)c(=O)[nH]2)cc1OC | -12.08% | -15.11%
CCn1cnnc1C1CCN(C(=O)c2ccc3c(c2)nnn3C)CC1 | -22.71% | -25.93%
Cn1cnnc1C1CCCN(C(=O)Cc2ccc3c(c2)OCCO3)C1 (centres unmarked) | -30.97% | 3.301%
O=C(O)C(F)(F)F.O=C(O)C(F)(F)F.[H][C@@]12OCCC[C@]1([H])N(Cc1cc(C)c(C)o1)C[C@@H]2N1CCOCC1 | -10.7% and -5.036% | -23.78% and -0.05998%
Cc1ncc(CN2CCOC(CNc3cccnn3)C2)s1 (centres unmarked) | -14.21% | 3.424%
Cc1ccccc1CN(C)C(=O)c1cc(C2CCCN2C)ccn1 (centres unmarked) | 8.072% | 18.58%
O=C(O)C(F)(F)F.[H][C@@]12CN(CC3CCOCC3)C[C@@]1([H])N(CC1CC1)C(=O)CO2 | 1.953% | -48.23%
FC(F)(F)Oc1ccc(-c2c[nH]c([C@@H]3COCCN3)n2)cc1 | 11.49% | 28.67% and 33.7%
NCCn1nc(C2CCN(Cc3ccc(Cl)c(Cl)c3)C2)c2nccnc21 (centres unmarked) | -0.5805% | 19.07%
c1ccc(CNC[C@H]2Cn3ccnc3CO2)cc1 | -16.68% | -25.19% and -9.28%
Cc1noc(C)c1CN(C)Cc1csc(-c2ccc(C(C)C)cc2)n1 | -2.642% | 49.09% and 22.63%
Cc1ccn(-c2cccc(C(=O)N3CCCC(n4ccnc4C)C3)c2)n1 (centres unmarked) | -4.506% | 7.846%
CC(C)CC(=O)N1CCN(c2cc(N(C)C)cnn2)CC1 | 4.381% | 1.665% and -3.155%
CCOC(=O)NC(CNC(=O)c1cc(Cl)ccn1)CC(C)C (centres unmarked) | -12.88% | -17.94% and -1.478%
O=C(O)C1(Cc2ccc(F)cc2F)CCCN(Cc2ccccn2)C1 (centres unmarked) | -7.845% | -14.63% and -6.171%
Cc1nonc1NC(=O)C1SCCc2sccc21 (centres unmarked) | -24.23% | 16.58%
Cc1nc(N[C@H]2COC[C@@H]2N2CCCC2)c2cnn(C)c2n1 | 6.802% | -12.54%
Cc1nc(C2CCCN2CCCS(=O)(=O)N(C)C)no1 (centres unmarked) | -13.13% | -35.26%
O=c1cc(CN2CCCC2)nc2n1CCCN(Cc1ccsc1)C2 | -5.264% | 3.282%
O=C(Nc1nncs1)NC1CCN(Cc2ccccc2)C1 (centres unmarked) | 1.194% | 14.96%
O=C(c1cscn1)N1CCCCC1c1nc2cc(F)ccc2[nH]1 (centres unmarked) | -2.649% | 12.09%
CN(C)C(=O)Cc1ccccc1NCc1nc(Cc2ccccc2)no1 | 2.494% | 29.52%
COCc1cnc2n1CCN(C(=O)c1cnc3ccccc3c1)C2C (centres unmarked) | -6.825% | -7.526%
CS(=O)(=O)NC1CCN(Cc2ccc(OCc3ccccn3)cc2)CC1 | -0.02141% | 22.58%
CCN(Cc1nc2c(cnn2C)c(=O)[nH]1)Cc1ccccc1C | -0.6875% | 6.959%
c1ccc2oc(CCCN3CCCC3c3noc(C4CC4)n3)nc2c1 (centres unmarked) | 36.34% | -43.5%
Cc1ncsc1-c1nnc(C2CCCN2C(=O)CCn2cccn2)o1 (centres unmarked) | 15.04% and 4.818% | 1.113%
CCCC(=O)N1CCCN(C(=O)Nc2ccc(C)s2)CC1 | -39.16% | -53.76%
CN(C)c1cc2c(nn1)CCN(C(=O)Cc1noc3ccccc13)C2 | 4.283% | -14.01%
Cc1ccc(NC(=O)N2CCOC(C)(c3cnn(C)c3)C2)c(C)c1 (centres unmarked) | 10.43% | -11.45%
CC(C)(NC(=O)Nc1cnn(CC2CCCO2)c1)c1nccs1 (centres unmarked) | 10.64% | -17.77% and 0.2716%
CC(C)c1nc(N2CCC(N3CCSCC3)CC2)c2cnn(C)c2n1 | 2.783% | 40.12%
CN(C)c1cccc(C(=O)NCC(O)c2cccs2)c1 (centres unmarked) | -24.61% | -31.99%
N#CC1(C(=O)N2Cc3cc(-c4cc[nH]n4)ccc3C2c2cnco2)CC1 (centres unmarked) | -2.534% | 2.132% and -24.21%
CN(C)Cc1nnn2c1CN(Cc1cccnc1)CCC2.O=C(O)C(F)(F)F.O=C(O)C(F)(F)F.O=C(O)C(F)(F)F | -4.889% | 3.381%
O=S(=O)(CCc1ccccc1)Cc1nc(C2CC2)no1 | 47.63% and 60.13% | 51.75% and 54.9%
CCc1nc(CNC(=O)c2ccc(C(C)N3CCCCC3)o2)cc(=O)[nH]1 (centres unmarked) | 5.329% | 6.865%
Cc1cnc(-c2nc(NC3CC3)ncc2-c2onc(C)c2C)cn1 | -20.46% | -19.76%
CC1CCCCN1C(=O)COc1nc(C(C)(C)C)no1 (centres unmarked) | 3.889% | 19.53%
Cc1nc(N(C)C)ncc1C(=O)NCCCn1nccc1C1CC1 | -9.453% and -19.34% | -7.718% and -38.25%
O=c1cc(N2CCCC2)cnn1CC(F)F | -10.32% and -3.095% | 16.54%
Cc1cnn(CCNCc2ccccc2C#N)c1 | -20.09% | -13.58%
CC(C)N(Cc1cccnc1)C(=O)CCSc1ccc(C#N)cc1 | -15.97% | -6.75%
O=C(O)C(F)(F)F.[H][C@]12CCC[C@@]1(COCc1ccccn1)CN(C(=O)N1CCCC1)C2 | 4.839% | 25.8%
Cc1ccc(OCCC(=O)N(C)CCC#N)cc1C | -17.97% | -14.43%
N#Cc1ccnc(N2CCN(CC(O)c3cccc(F)c3)CC2)c1 (centres unmarked) | 4.127% | 7.766%
Cc1cccc2c1nc1n2[C@@H](CNC(=O)c2cncnc2)COC1 | -16.89% | -0.2926% and -7.572%
Cn1cc(C(=O)N2CCN(c3ncccn3)CC2)ccc1=O | 1.844% | -5.686% and 0.1883%